Results on 59 molecules are retold here after PubChem BioAssay AID2685 (National Center for Advancing Translational Sciences (NCATS), 2010).

This test can be described thus: qHTS Assay for Lipid Storage Modulators in Drosophila S3 Cells.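 For cell number change: cells counted by Cell Tracker Red CMTPX staining in the red channel.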 The settings on record: BODIPY lipid droplet fluorescence, 18-24 h; for cell number change: measured here: cell count max response, cells fed with added oleic acid. The method in brief:
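Drosophila S3 cells loaded with oleic acid (400 uM, as added) and compounds at several concentrations; lipid droplets imaged by 488-nm laser-scanning cytometry, 500–530 nm intensity and object ratio to cell channel. Percent activity normalized to 20 uM Triacsin C.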
A general note: Quantitative high-throughput screening tests each substance at several concentrations.

[1] abbreviates: measured here: lipid fluorescence (Fed channel) AC50, cells fed with added oleic acid.
Setting [2] is: measured here: cell number channel AC50, cells fed with added oleic acid.

The structures appear in SMILES notation. The list shows a part of the results. Shown are side measurements of this screen, not its main read-out; they come without a call. The list favours compounds with an active or inconclusive main result. Words in brackets tell the shape of the fitted curve; partial curves, single points and poor fits give uncertain potencies.

`Cn1ccnc1C(=O)c1cccc(Br)c1`: under setting [1], the half-maximal activity concentration (AC50) is 0.58 µM [rising, single point].
In the case of `C=CCN(c1ccc(F)cc1)S(=O)(=O)c1cc(C(=O)OCC(=O)N(C)C2CCS(=O)(=O)C2)ccc1Cl` (centres undefined), the cell number change is -17.4%. Moreover, under setting [1], the AC50 is 29.1 µM [falling, single point].
As to `O=C(CNC(=O)c1cccc(Br)c1)N/N=C/c1ccc[nH]1`, the AC50 under setting [2] is 0.58 µM [rising, single point] and the AC50 under setting [1] is 0.58 µM [rising, single point].
As to `CN(C)CCCNCCCCNC(=O)/C=N/O`, the cell number change is -6.19%. Further, under setting [1], the AC50 was 29.1 µM [falling, single point].
Regarding `C/C(=C\C(=O)c1c(O)cc(C)oc1=O)N(C)C`, the cell number change came out at 25.1%. For the same molecule, the AC50 under setting [1] was 6.51 µM [rising, single point].
As for `O=S(=O)(Nc1ccc2c(c1)OCCO2)c1ccc(F)c(F)c1`, the cell number change was 20.5%. In addition, the AC50 under setting [1] was 23.1 µM [rising, single point].
Regarding `O=C(OCC(=O)N1CCN(Cc2ccccc2)CC1)c1ccc(Cl)cc1`, the cell number change stood at 29.7%. The half-maximal activity concentration (AC50) under setting [2] was 4.11 µM [rising, full curve, poor fit]. Besides, the AC50 under setting [1] is 2.59 µM [rising, full curve].
With `CNC(=S)NNC(=O)Cc1ccccc1`, the cell number change was -37.5%. In addition, the AC50 under setting [2] was 29.1 µM [falling, partial curve, poor fit].
On to `O=C(Cn1cc(C(F)(F)F)ccc1=O)Nc1ccc(N2CCOCC2)cc1`, for which the cell number change is -28.4%. Besides, under setting [1], the AC50 was 0.0651 µM [falling, full curve, poor fit].
`Cc1c(Br)c([N+](=O)[O-])nn1CC(=O)NCc1cccnc1`: the cell number change was -67%. For the same molecule, under setting [2], the AC50 is 32.6 µM [falling, partial curve, poor fit]. Also, under setting [1], the AC50 is 6.51 µM [falling, single point].
On to `O=C(CSc1n[nH]c(=O)n1C1CC1)Nc1ccc(F)c([N+](=O)[O-])c1`, for which the cell number change worked out at 79.2%. In addition, the AC50 under setting [2] was 20.6 µM [rising, partial curve]. Further, the AC50 under setting [1] is 18.4 µM [rising, partial curve].
For the molecule `CC(C)(C)N=C1NN=C(c2ccc(Cl)cc2)CS1`, the cell number change is -30.5%.
On to `Cc1cccc(NC(=O)c2cccc(N3C(=O)C4C5C=CC(C6CC56)C4C3=O)c2)c1` (centres undefined), for which the AC50 under setting [1] is 6.51 µM [falling, single point].
Consider `O=C(CCl)NNC(=O)c1c(O)c2ccccc2[nH]c1=O`, for which the cell number change is -39.4%. Besides, under setting [1], the AC50 was 18.4 µM [falling, partial curve, poor fit].
Take `Cc1cc(C)n(C(=O)CNC(=O)c2ccccc2F)n1`: the cell number change is -17.6%.
As to `CC(=O)C1=C(C)NC(SCC(=O)Nc2nc3ccccc3s2)=C(C#N)C1c1ccc(Cl)cc1` (centres undefined), the cell number change was -15.6%. In addition, the AC50 under setting [1] is 29.1 µM [falling, single point].
As for `COCc1c(C(=O)N/N=C(/C)c2ccc(OCc3ccccc3)cc2)nnn1-c1nonc1N`, the cell number change was determined as 7.66%. Moreover, under setting [1], the AC50 was 6.51 µM [falling, partial curve, poor fit].
In the case of `COc1ccc(CSc2nc(C)cc(=O)[nH]2)cc1`, the cell number change is 0.977%.
`O=C(Oc1ccc(-c2nnco2)cc1)N1CCCCC1`: the cell number change is -0.661%.
As to `O=C(OCC(=O)N1CCN(c2ccccc2)CC1)c1ccc2ccccc2n1`, the cell number change amounted to 122%. Moreover, the AC50 under setting [2] is 29.1 µM [rising, single point]. In addition, the AC50 under setting [1] was 0.291 µM [rising, full curve].
As for `O=c1c(-c2ccccc2)nc(-c2ccccc2)cn1O`, the cell number change is -21.3%. Moreover, the AC50 under setting [1] is 29.1 µM [falling, single point].
Take `CCOC(=O)Cc1nnc(NC(=O)CSc2nc3ccccc3[nH]2)s1`: the cell number change is -15%. The AC50 under setting [1] is 29.1 µM [falling, single point].
Turning to `CCc1ccc(NC(=O)CSc2nnc(Cc3cccn3C)n2-c2ccc(F)cc2)cc1`, the cell number change amounted to 14%.
Regarding `COc1ccc(N(CC(=O)Nc2cc(OC)c(OC)cc2C(=O)O)S(=O)(=O)c2c(C)noc2C)cc1`, the cell number change was -6.6%. Further, the AC50 under setting [1] was 3.26 µM [falling, single point].
Turning to `O=C(c1c(Cl)cccc1Cl)N1CCCCCC1`, the AC50 under setting [2] was 0.651 µM [falling, full curve, poor fit].
For `Cc1c(C(=O)N(C)Cc2ccc(OC(F)F)cc2)oc2ccccc12`, the cell number change is -5.13%. Under setting [1], the AC50 is 6.51 µM [rising, single point].
Consider `NC(=O)C1CCN(c2ncccc2[N+](=O)[O-])CC1`, for which the cell number change is -38.7%. Moreover, under setting [2], the AC50 was 0.291 µM [falling, full curve, poor fit].
For `COc1cc(C(=O)n2nc(C)cc2C)cc(OC)c1OC`, the cell number change turned out to be 33.6%. For the same molecule, under setting [2], the AC50 is 4.61 µM [rising, full curve, poor fit]. Also, the AC50 under setting [1] was 4.11 µM [rising, full curve].
Regarding `CC(=O)c1ccc(N2CCN(CC(=O)NC(=O)NCc3ccccc3)CC2)cc1`, the cell number change was -8.57%.
Regarding `COc1ccc(-c2nn(-c3ccccc3)cc2/C=C/C(=O)N2CCN(c3ccccn3)CC2)cc1`, the cell number change is -50.1%. In addition, the AC50 under setting [2] was 25.9 µM [falling, partial curve]. The AC50 under setting [1] was 18.4 µM [falling, partial curve, poor fit].
Regarding `CN1CCN(C(=O)C2C3C=CC(C3)C2C(=O)O)CC1` (centres undefined), the cell number change amounted to 12.5%.
Consider `COc1ccccc1C(=O)NC1CCSc2ccccc21` (centres undefined), for which the cell number change is 15.8%. The AC50 under setting [1] is 4.61 µM [rising, partial curve].
On to `CCOC(=O)C1CCN(C2CCN(C(=O)c3oc4c(C)c(C)ccc4c3C)CC2)CC1`, for which the cell number change is -25.1%. In addition, under setting [1], the AC50 is 29.1 µM [falling, single point].
Consider `COc1ccc([N+](=O)[O-])cc1NC(=O)CCCOc1ccccc1`, for which the cell number change is 5.94%. In addition, the AC50 under setting [1] was 2.91 µM [rising, single point].
On to `CCN1CCN(c2nc(N)c([N+](=O)[O-])c(Nc3ccc(C)c(C)c3)n2)CC1`, for which the cell number change was -12.5%. Also, the AC50 under setting [2] was 0.326 µM [falling, full curve, poor fit].
With `CCCSc1nc(C)c(CC(=O)OCC)c(=O)[nH]1`, the cell number change was -1.21%.
As for `Cc1cc(C(F)(F)F)c2c(N)c(C(=O)NC3CC3)sc2n1`, the AC50 under setting [1] is 15.8 µM [falling, partial curve, poor fit].
`CN1CCN(CC2(O)CCN(S(=O)(=O)c3ccc(Cl)cc3)CC2)CC1`: the cell number change was -30.5%. The AC50 under setting [1] is 10.3 µM [falling, partial curve].
Consider `COc1cccc(N=Nc2c(N)[nH]n3c(=O)cc(-c4ccccc4)nc23)c1`, for which the cell number change is -11.8%. For the same molecule, the AC50 under setting [2] is 0.164 µM [falling, full curve, poor fit]. In addition, the AC50 under setting [1] was 0.103 µM [falling, full curve, poor fit].
Regarding `COC(=O)C1C(c2ccc(OC)cc2)Nc2nnc(C(F)(F)F)n2C1(C)O` (centres undefined), the cell number change was -69.5%.
With `CCCOc1ccc(-c2nc(OCC)c3ccccc3n2)cc1`, the cell number change turned out to be 13.8%. Also, under setting [2], the AC50 is 0.92 µM [rising, partial curve]. Further, under setting [1], the AC50 is 1.64 µM [rising, partial curve].
Take `CN1CCN(c2cc(=O)n(Cc3ccc(F)cc3)c(=O)[nH]2)CC1`: the cell number change is -53.9%. Further, the AC50 under setting [2] was 29.1 µM [falling, single point]. Under setting [1], the half-maximal activity concentration (AC50) was 2.06 µM [falling, partial curve].
In the case of `CCc1cc(=O)oc2c(CNCc3ccc(OC)cc3OC)c(O)c(Cl)cc12`, the cell number change was -38.7%. The AC50 under setting [2] was 0.0731 µM [falling, full curve, poor fit].
In the case of `COc1ccc2nc(NC(=O)Cn3cnc4ccccc4c3=O)sc2c1`, the cell number change worked out at 13.3%. Under setting [1], the AC50 was 6.51 µM [rising, single point].
On to `CCc1ccc(NC(=O)Cc2c(C(=O)O)n(C)c3ccccc23)cc1`, for which the cell number change was -41.3%. Under setting [2], the AC50 is 29.1 µM [falling, single point]. In addition, the AC50 under setting [1] was 14.6 µM [falling, single point].
In the case of `O=C(CCCC(=O)N(CC(=O)NC1CCCCC1)CC1CCCO1)Nc1ccccn1` (centres undefined), the cell number change was 34.7%. Besides, the AC50 under setting [2] was 16.4 µM [rising, single point]. For the same molecule, under setting [1], the AC50 is 29.1 µM [rising, single point].
Regarding `COc1ccc(OC)c(NC(=O)c2cc(-c3cc(C)ccc3O)n[nH]2)c1`, the cell number change stood at 187%. Moreover, the concentration at half-maximal activity (AC50) under setting [2] is 29.1 µM [rising, single point]. Moreover, under setting [1], the AC50 was 0.0326 µM [rising, full curve, poor fit].
Regarding `Cc1ccc(C(=O)COC(=O)c2ccc(Cl)c(N)c2)s1`, the cell number change was -19.3%. Moreover, the AC50 under setting [1] is 29.1 µM [rising, single point].
In the case of `Cc1c(CCC(=O)N[C@@H](C)C(=O)O)c(=O)oc2cc3oc4c(c3cc12)CCCC4`, the AC50 under setting [1] is 6.51 µM [falling, single point].
In the case of `COCCCn1c(SC(C)C(=O)Nc2c(C)n(C)n(-c3ccccc3)c2=O)n[nH]c1=O` (centres undefined), the cell number change is -23.7%.
As to `O=C(NCc1ccccn1)C1CCCN(S(=O)(=O)c2ccc(Br)cc2)C1` (centres undefined), the cell number change was -4.5%. For the same molecule, under setting [1], the AC50 is 29.1 µM [falling, single point].
Regarding `O=C(c1cc(COc2cccc(C(F)(F)F)c2)on1)N1C[C@@H]2CCC[C@H]1C2`, the cell number change was -0.268%. Besides, the half-maximal activity concentration (AC50) under setting [1] is 29.1 µM [falling, single point].
In the case of `CNS(=O)(=O)c1ccc(NC(=O)C2CC(=O)N(c3ccc(Cl)cc3)C2)cc1` (centres undefined), the cell number change turned out to be 116%.
For `COCCNc1nc2nonc2nc1N(C)Cc1ccc(C)cc1`, the cell number change came to 14.4%. Besides, under setting [1], the AC50 is 4.11 µM [rising, full curve, poor fit].
On to `COc1ccccc1-n1cnnc1SCC(=O)Nc1ncc(Cl)cc1Cl`, for which the AC50 under setting [1] is 6.51 µM [falling, single point].
For the molecule `COc1ccc(CCNC(=O)c2cnn(-c3ccc(C)c(C)c3)c2NC(=O)c2ccco2)cc1OC`, the cell number change amounted to 3.22%. Besides, the AC50 under setting [1] is 29.1 µM [rising, single point].
Regarding `Cc1ccc(NC(=O)c2ccc(S(=O)(=O)N3CCC(C)CC3)cc2)nc1`, the cell number change amounted to 39.9%. Moreover, under setting [2], the half-maximal activity concentration (AC50) is 18.4 µM [rising, single point]. Besides, the AC50 under setting [1] is 6.51 µM [rising, single point].
In the case of `CC(C)(CNC(=O)c1cccc(S(=O)(=O)Nc2ccc(Br)cc2)c1)N1CCOCC1`, the AC50 under setting [1] is 0.731 µM [falling, single point].
On to `CC(C)(C)N1CC2(c3ccccc3)CN(C(C)(C)C)CC(c3ccccc3)(C1)C2=O`, for which the cell number change was 3.41%. For the same molecule, the AC50 under setting [2] is 0.0116 µM [rising, full curve, poor fit]. Also, under setting [1], the AC50 was 4.11 µM [rising, partial curve, poor fit].

The AC50 is the midpoint of the concentration-response curve, whichever way the signal moves. Read a low AC50 as greater potency.
